{
  "sequences": {"note": "By UniProt entry, the sequences of proteins in these tests, tags left out.", "UniProt P03372, whole entry": "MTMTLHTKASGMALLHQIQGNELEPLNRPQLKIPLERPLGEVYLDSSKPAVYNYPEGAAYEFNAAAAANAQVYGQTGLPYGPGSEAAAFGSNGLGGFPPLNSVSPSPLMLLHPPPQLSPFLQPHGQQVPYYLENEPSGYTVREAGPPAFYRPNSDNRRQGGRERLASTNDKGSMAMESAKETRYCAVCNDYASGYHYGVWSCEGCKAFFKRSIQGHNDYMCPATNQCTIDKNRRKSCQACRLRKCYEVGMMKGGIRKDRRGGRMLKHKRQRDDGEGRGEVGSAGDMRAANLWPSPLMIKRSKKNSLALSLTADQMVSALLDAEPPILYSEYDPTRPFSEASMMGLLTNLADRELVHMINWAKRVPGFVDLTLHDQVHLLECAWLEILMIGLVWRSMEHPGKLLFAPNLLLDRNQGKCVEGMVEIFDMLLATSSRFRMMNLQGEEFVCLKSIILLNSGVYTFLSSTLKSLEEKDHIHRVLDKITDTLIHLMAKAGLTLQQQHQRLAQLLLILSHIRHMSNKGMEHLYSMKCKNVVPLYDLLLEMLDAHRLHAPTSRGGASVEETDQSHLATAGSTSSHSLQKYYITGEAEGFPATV"},
  "source": "PubChem BioAssay AID694",
  "about": "(Emory University Molecular Libraries Screening Center, 2007)",
  "note": "“And” between values parts separate entries of the source, which are not always exact repeats. Identical values can stand only once. This is one part of the list.",
  "data": [
    {"molecular_target": "Estrogen receptor (Homo sapiens) (UniProt P03372)", "assay": "blockers of coactivator recruitment to ERα – biochemical, LOPAC library, TR-FRET, primary screen (AID 694);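 further: receptor was agonist-bound with estradiol present during the assay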", "conditions": "TR-FRET ERalpha-coactivator peptide binding, at 15 µM, stronger effect = higher value", "values": [
      {"smiles": "CN(C(=O)Cc1ccccc1)[C@@H]1CC[C@]2(CCCO2)C[C@H]1N1CCCC1", "inhibition": "-0.81%"},
      {"smiles": "CN(C(=O)Cc1ccc(Cl)c(Cl)c1)[C@@H]1CC[C@]2(CCCO2)C[C@H]1N1CCCC1", "inhibition": "-0.75%"},
      {"smiles": "CN(C(=O)Cc1ccc(Cl)c(Cl)c1)[C@@H]1CCCC[C@H]1N1CCCC1", "inhibition": "2.44%"},
      {"smiles": "CN(CCCl)Cc1cc(Cl)c(NC2=NCCN2)c(Cl)c1", "inhibition": "2.07%"},
      {"smiles": "CC(Cc1ccc(O)cc1)NCC(O)c1cc(O)cc(O)c1", "note": "(configuration not stated)", "inhibition": "6.47%"},
      {"smiles": "CN(C(=O)Cc1ccc(Cl)c(Cl)c1)[C@H]1CCCC[C@@H]1N1CCCC1", "inhibition": "-3.57% and 1.15%"},
      {"smiles": "CN(C(=O)Cc1ccc(Cl)c(Cl)c1)[C@@H]1CCCC[C@@H]1N1CCCC1", "inhibition": "-5.72%"}
    ]}
  ]
}
